{"source": "patent US5484803A", "about": "“Transcutaneous in vivo activation of photosensitive agents in blood” (priority 1995, dated 1996)", "system": "mice", "assay": "Tolerability of light exposure starting 15 min post-injection (lethality)", "assay_type": "in vivo, Balb/c mice", "settings": "immediately after administration; 54 J/cm^2 light; 0.9 mg/kg", "experimental": "In order to determine the level of BPD in plasma during the light treatment, the following experiment was carried out. Fourteen Balb/c mice (22±1 g of weight) were injected with liposomal BPD at 20 μg/mouse (0.9 mg/kg) in 200 μl PBS per mouse. Blood samples were obtained by heart puncture at various time intervals between 15 min and 2 hours post-injection. Exposure to light started at 15 min post-injection for some mice. The BPD concentration in plasma was determined as described above.\nAt 2 hours post-injection, i.e., at the time point corresponding to the end of 1 hour exposure to light (108 J/cm^2) in the first example, the plasma level of BPD was 2.44 μg/ml. At the beginning of exposure to light, in the same example, the plasma level of BPD was about 4 μg/ml. To further evaluate skin photosensitivity at these low levels, mice were exposed to light at an earlier time post-injection, i.e., at 15 min, when the level of BPD in plasma was 6.32 μg/ml.", "note": "At least one read-out could not be matched to a standard name with certainty."}
{"substance": "benzoprophyrin derivative monoacid ring A [BPD]", "values": [{"measurement": "highest plasma concentration of BPD, lethal with light", "result": 6.3, "unit": "µg/mL"}]}
